Experimental findings from PMC9277809 are described below.

For assay [1], the target named is T1, NRR (rice (Oryza sativa L.)) (UniProt Q5ZEF1).
T1 sequence: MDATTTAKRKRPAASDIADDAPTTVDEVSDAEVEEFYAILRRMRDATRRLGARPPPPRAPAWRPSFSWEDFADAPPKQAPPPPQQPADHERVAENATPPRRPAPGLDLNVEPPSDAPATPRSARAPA
Nature of the assay: two-hybrid; confirmation of single bait-E3 pairs in yeast; growth on DDO (SD-Leu-Trp) and QDO (SD-Leu-Trp-His-Ade); called yeast co-transformation assay for OsPAL1-OsFBK16.

Assay [2] addresses T1, NRR (rice (Oryza sativa L.)). Nature of the assay: two-hybrid; library screen: AH109 carrying the pGBKT7-bait mated with Y187 carrying the pGADT7-UbE3 library (1499 E3 ORFs) at 30 °C for 20-24 h; selection on SD-Leu-Trp-His-Ade; positive clones identified by PCR and sequencing.

These are yes or no findings as the source states them, for the method shown. A result given as binding can be weak or reduced; the word gives no strength.

In the case of HBTB8, the binding result in assay [1] and in assay [2] was “binds” in each case.

For the substance OsFBX68, the binding entry in assay [1] and in assay [2] was “binds” throughout.

With OsFBX82, the binding entry in assay [1] and in assay [2] was “binds” in each case.

Turning to OsFBX389, the binding entry in assay [1] and in assay [2] was “binds” each time.

In the case of OsPUB69 (enzyme), the binding result in assay [1] and in assay [2] was “binds” in each case.
